PubChem BioAssay AID504467 (National Center for Advancing Translational Sciences (NCATS), 2011)
The campaign covered roughly 330,000 compounds. About 7,700 (2.3%) were called active. Inconclusive results, whose numbers are uncertain, are shown with a selection of clear calls. Calls follow the shape of the dose curve; as a rule, active = well fitted inhibition curve with a large enough effect; inconclusive = small, poorly fitted or top-dose-only effect, or effect the other way; inactive = flat fitted curve, though single readings scatter. Potencies beside an inconclusive call are fits to weak or partial responses and may not hold up.

Assay: qHTS screen for small molecules that inhibit ELG1-dependent DNA repair in human embryonic kidney (HEK293T) cells expressing luciferase-tagged ELG1; also: nearly all actives have a fitted effect of over 55% in size
Conditions: HEK293T ELG1-luciferase reporter, luminescence, 16 h, DNA damage induced by 5-fluorouridine; activity change, negative = inhibition: at 46.1 µM (top of the series)
Procedure, shortened: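 HEK293T cells expressing luciferase-tagged ELG1 (2,000/well) received 5-Fluorouridine plus compound or DMSO for 16 hr at 37 °C. Luciferase was read by ONE-Glo luminescence after 30 min at room temperature.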
% is scaled to controls: 0 for no effect and ±100 for the full control effect; potency is read from the fitted curve at half-maximal effect.

With O=C(O)C1=C[C@H](c2ccc(Br)cc2)C[C@H](OCCCCO)O1 as the molecule, how does the “activity change, negative = inhibition” value read?
The value was inactive: 12.8%.

For COc1ccc(C(=O)CSc2nnc(CN3CCCCC3)n2-c2ccc(F)cc2)cc1OC, which “activity change, negative = inhibition” value is on record?
Its value is inactive: 0.0093%.

Which Potency does the source give for Cc1ccc(N/N=C(\C#N)C(=O)c2ccsc2)cc1 here?
Its Potency is inconclusive: 20.6 µM [inhibitor, single point].

Which Potency does the source give for O=C(/C=C/Nc1ccc(F)c(F)c1)c1cccs1 here?
The Potency was inconclusive: 2.59 µM [activator, full curve].

For NC(CSS(=O)(=O)O)=NCCC12CC3CC(CC(O)(C3)C1)C2, which Potency is on record?
The Potency was inconclusive: 29.1 µM [activator, single point].

With Nc1ncnc2nc(SCCN3CCCCC3)[nH]c12 as the molecule, how does the Potency read?
The Potency was inconclusive: 29.1 µM [inhibitor, single point].

With O=C(c1cc(-c2ccccn2)nc2c(Cl)cccc12)N1CCN(S(=O)(=O)c2ccccc2)CC1 as the molecule, how does the Potency read?
The Potency was active: 18.4 µM.

Which “activity change, negative = inhibition” value does the source give for CNC(=O)c1cc(S(=O)(=O)Nc2ccc3c(c2)OCO3)ccc1C here?
The value was inactive: -1.18%.

For CCC(=O)Nc1ccc2c(c1)ncn2CCc1ccccc1, which Potency is on record?
The Potency was inconclusive: 14.6 µM [activator, partial curve].

Which Potency does the source give for CCOC(=O)/C(C#N)=C/c1c(OCC)n(CC)c2ccccc12 here?
Its Potency is inconclusive: 29.1 µM [inhibitor, single point].

Which Potency does the source give for N#CCCCSc1ncccc1-c1nc2ccccc2[nH]1 here?
Its Potency is inconclusive: 8.2 µM [activator, partial curve].

With CCC(C)Nc1nc(Cl)nc(NCCOc2ccccc2)n1 (stereo not given) as the molecule, how does the Potency read?
Its Potency is inconclusive: 20.6 µM [activator, partial curve, poor fit].

With O=C(CCNS(=O)(=O)c1ccc(Br)cc1)NCc1ccco1 as the molecule, how does the Potency read?
Its Potency is inconclusive: 2.06 µM [activator, partial curve, poor fit].

For COc1ccc(/C=C(\C#N)c2cc(OC)c(OC)cc2[N+](=O)[O-])cc1, which “activity change, negative = inhibition” value is on record?
Its value is inactive: -10.6%.

For Cc1cc(C(=O)Nc2ccccc2)oc1C, which Potency is on record?
Its Potency is inconclusive: 35.5 µM [activator, single point].

With O=C(NCCCN1CCCC1=O)c1csc2ccccc12 as the molecule, how does the Potency read?
Its Potency is inconclusive: 20.6 µM [activator, single point].

Which “activity change, negative = inhibition” value does the source give for CCc1ccccc1NS(=O)(=O)c1c(C(=O)N2CCCCCC2)c(C)n(C)c1C here?
The value was inactive: 4.02%.

Which Potency does the source give for COc1ccc(S(=O)(=O)N2CCCCCC2)cc1C(=O)NCCOc1ccc(C)cc1 here?
The Potency was inconclusive: 29.1 µM [inhibitor, single point].

With COC(=O)CSc1nc(N2CCOCC2)c2c(c1C#N)CC(C)(C)OC2 as the molecule, how does the Potency read?
The Potency was inconclusive: 23.1 µM [inhibitor, single point].

With Cc1ccc(-c2ccnc(-c3ccc(O)cc3)n2)cc1 as the molecule, how does the Potency read?
The Potency was inconclusive: 23.1 µM [activator, partial curve].

With O=C(O)/C=C/C(=O)Nc1ccc2c(c1)C(=O)c1ccccc1C2=O as the molecule, how does the Potency read?
The Potency was inconclusive: 20.6 µM [activator, single point].

For Cn1c(CSc2nc3ccccc3s2)nc2ccccc21, which Potency is on record?
The Potency was inconclusive: 2.06 µM [activator, full curve].

For CCCCCCC(=O)N(O)C1CC(=O)N(c2ccc(Br)cc2)C1=O (stereo not given), which Potency is on record?
Its Potency is inconclusive: 29.1 µM [activator, single point].

For Cc1ccc(Cn2c(=O)c3ccccc3n3c(SCC(=O)N4CCCCC4C)nnc23)cc1 (stereo not given), which Potency is on record?
The Potency was inconclusive: 6.51 µM [inhibitor, partial curve, poor fit].

For O=C(c1ccco1)N1CCCC(c2nc3c(nnn3Cc3ccc(Cl)cc3Cl)c(=O)[nH]2)C1 (stereo not given), which “activity change, negative = inhibition” value is on record?
Its value is inactive: -1.17%.

For O=C(NCc1ccccn1)c1cc(S(=O)(=O)N2CCN(c3ccccc3)CC2)ccc1Cl, which Potency is on record?
The Potency was inconclusive: 18.4 µM [inhibitor, partial curve].

Which Potency does the source give for COc1ccc(NC(=O)Nc2ccccc2)cc1S(=O)(=O)N1CCCCC1 here?
The Potency was inconclusive: 29.1 µM [inhibitor, single point].

For CN1CCN(C(=O)/C(=C/c2cn(S(=O)(=O)N(C)C)c3ccccc23)NC(=O)c2ccccc2F)CC1, which “activity change, negative = inhibition” value is on record?
Its value is inactive: -25.4%.

Which “activity change, negative = inhibition” value does the source give for COc1ccccc1/C=C1/C(=O)N(c2ccc([N+](=O)[O-])cc2)N=C1C here?
The value was inactive: -2.1%.

Which Potency does the source give for Cc1sc(NC(=O)C2CCCCC2C(=O)O)c(C(N)=O)c1-c1ccc(C(C)C)cc1 (stereo not given) here?
Its Potency is inconclusive: 31.6 µM [activator, single point].

For COc1cc(Br)cc(CN2CCN(c3ncccn3)CC2)c1O, which “activity change, negative = inhibition” value is on record?
Its value is inactive: -11.6%.

With Cc1ccc(/C=N/n2c(-c3cccs3)n[nH]c2=S)cc1 as the molecule, how does the “activity change, negative = inhibition” value read?
The value was inactive: 1.07%.

Which Potency does the source give for CCOc1cc(CNC(=O)CCCn2c(=O)c3cccn3c3cccnc32)cc(OCC)c1OCC here?
The Potency was active: 16.4 µM.

For COc1ccccc1-c1nc(C#N)c(NCc2ccc(F)cc2)o1, which Potency is on record?
Its Potency is inconclusive: 23.1 µM [inhibitor, single point].

For Cc1cccc(N2CCN(C(=O)CCC(=O)N3Cc4ccccc4Oc4ncccc43)CC2)c1C, which Potency is on record?
Its Potency is inconclusive: 20.6 µM [inhibitor, partial curve].

Which Potency does the source give for COc1ccc(C(=O)N2CCc3c([nH]c4ccccc34)C2C(F)(F)F)cc1 (stereo not given) here?
The Potency was inconclusive: 18.3 µM [inhibitor, single point].

For O=C(NCc1cccc(Cl)c1)C1CCC(=O)N(C2CC2)C1 (stereo not given), which Potency is on record?
Its Potency is inconclusive: 16.4 µM [activator, single point].

For COc1ccccc1CNC(=O)COC(=O)c1ccc2c(=O)n3c(nc2c1)CCCCC3, which Potency is on record?
The Potency was inconclusive: 29.1 µM [activator, partial curve, poor fit].

For COc1ccc(C(C)=O)cc1Cn1cnc2c(cnn2C)c1=O, which “activity change, negative = inhibition” value is on record?
The value was inactive: -2.24%.

Which Potency does the source give for Cc1sc2nc(CSC(C)C(=O)Nc3ccccn3)[nH]c(=O)c2c1C (stereo not given) here?
The Potency was inconclusive: 16.4 µM [activator, partial curve, poor fit].

With Cc1cccc(N(Cc2cc3ccc(C)cc3[nH]c2=O)C(=O)c2ccco2)c1 as the molecule, how does the Potency read?
The Potency was inconclusive: 13 µM [inhibitor, partial curve, poor fit].

With CCN(CC)CCOC(=O)C1(c2ccccc2)CCCC1 as the molecule, how does the Potency read?
The Potency was inconclusive: 0.82 µM [inhibitor, partial curve, poor fit].

Which “activity change, negative = inhibition” value does the source give for CN=C(Nc1ccccc1)SC1CC(=O)N(c2ccc(C(=O)OC)cc2)C1=O (stereo not given) here?
The value was inactive: -23.3%.

With COc1ccc(C(=O)/C=C/c2ccc(O)cc2)c(O)c1C/C=C(\C)CCC=C(C)C as the molecule, how does the “activity change, negative = inhibition” value read?
The value was inactive: -0.801%.

With CCn1c(=NC(=O)CS(=O)(=O)c2ccc(F)cc2)sc2cccc(OC)c21 as the molecule, how does the “activity change, negative = inhibition” value read?
The value was inactive: -15%.

For Cc1nc2ccccc2cc1C(=O)NCc1ccco1, which “activity change, negative = inhibition” value is on record?
Its value is inactive: -17.2%.

Which Potency does the source give for COc1ccc(-c2nn(-c3ccccc3)cc2CO)cc1OC here?
Its Potency is inconclusive: 28.2 µM [inhibitor, single point].

With COc1ccc(S(=O)(=O)N(C)C[C@@H]2Oc3ccc(NC(=O)Nc4c(C)noc4C)cc3C(=O)N([C@H](C)CO)C[C@@H]2C)cc1 as the molecule, how does the Potency read?
The Potency was inconclusive: 20.6 µM [activator, partial curve, poor fit].

With Cc1ccc(NC(=O)c2cnc3ccccc3n2)cc1C as the molecule, how does the Potency read?
Its Potency is inconclusive: 2.59 µM [activator, partial curve].

For O=C(NCCCN1CCOCC1)c1ccc2c(=O)n(-c3ccc(F)c(Cl)c3)c(=S)[nH]c2c1, which “activity change, negative = inhibition” value is on record?
Its value is inactive: -14.3%.

Which Potency does the source give for Cc1c(C)n(C)c2ccc(C(=O)NCc3cccs3)cc12 here?
The Potency was inconclusive: 32.6 µM [inhibitor, partial curve, poor fit].

With O=C(Cn1cnc2sc(-c3ccccc3)cc2c1=O)NCCc1ccccc1 as the molecule, how does the Potency read?
Its Potency is inconclusive: 29.1 µM [activator, single point].

With Cc1ccc(N(C(=O)CNC(=O)c2ccco2)C(C(=O)NCC2CCCO2)c2ccccc2)cc1 (stereo not given) as the molecule, how does the Potency read?
The Potency was inconclusive: 32.6 µM [inhibitor, single point].

With COc1ccc(-n2nc(C(=O)NCC(=O)N3CCN(c4ccc(F)cc4)CC3)c3ccccc3c2=O)c(OC)c1 as the molecule, how does the Potency read?
The Potency was inconclusive: 18.3 µM [activator, partial curve].

Which “activity change, negative = inhibition” value does the source give for O=C(c1cc(-c2ccc3c(c2)OCO3)on1)N1CCN(c2ccc(F)cc2)CC1 here?
Its value is inactive: 11.3%.

For CC1CC(C)CN(c2nc(N(C)c3ccccc3)nc(N)c2[N+](=O)[O-])C1 (stereo not given), which Potency is on record?
Its Potency is inconclusive: 29.1 µM [inhibitor, single point].

Which “activity change, negative = inhibition” value does the source give for CC(C)(C)NC(=O)c1ccc2nccnc2c1 here?
The value was inactive: 3.76%.

For COc1cc2c(cc1CNC[C@H]1O[C@@H](n3cnc4c(N)ncnc43)[C@H](O)[C@@H]1O)OCO2, which “activity change, negative = inhibition” value is on record?
The value was inactive: 7.67%.

For COc1ccc(CNC(=O)COC(=O)CN2C(=O)COc3ccccc32)cc1, which Potency is on record?
Its Potency is inconclusive: 23.1 µM [activator, partial curve, poor fit].

With COc1ccc(CCNCC(O)c2ccccc2)cc1 (stereo not given) as the molecule, how does the Potency read?
Its Potency is inconclusive: 32.6 µM [activator, partial curve, poor fit].

For CN(C)c1ccc(-c2cc([C@H]3[C@@H]4C=CCC[C@@]4(C)C(=O)N3Cc3ccccc3)ccc2F)cc1, which “activity change, negative = inhibition” value is on record?
The value was inactive: -1.19%.

With Cc1nn(-c2ccccc2)c(Cl)c1/C=C1\SC(=S)N(C)C1=O as the molecule, how does the “activity change, negative = inhibition” value read?
Its value is inactive: -30.1%.

Which Potency does the source give for O=C(NC1CCN(c2ncccn2)CC1)c1ccccc1F here?
Its Potency is inconclusive: 11.6 µM [activator, partial curve, poor fit].

Which Potency does the source give for CC(=O)Nc1ccc(S(=O)(=O)N2CCN=C2SCc2ccc(F)cc2)cc1 here?
Its Potency is active: 2.91 µM.

For CCN(Cc1ccc(OC)c(F)c1)C(=O)C1CCCO1 (stereo not given), which “activity change, negative = inhibition” value is on record?
The value was inactive: 15.7%.

With COc1ccc(/C=N/NC(=O)COc2ccc3ccccc3c2)c(C(=O)O)c1OC as the molecule, how does the “activity change, negative = inhibition” value read?
The value was inactive: 17.7%.

With CCOCCOC(=O)c1[nH]c2c(c1C)C(=O)CC(c1ccccc1)C2 (stereo not given) as the molecule, how does the “activity change, negative = inhibition” value read?
The value was inactive: -3.18%.

Which Potency does the source give for CCOC(=O)C1=C(C)N(c2ccc(OCC)cc2)C(=O)/C1=C\c1ccco1 here?
Its Potency is inconclusive: 18.3 µM [inhibitor, single point].

Which Potency does the source give for Fc1ccc(NC(=S)N2CCSC2c2cccs2)cc1 (stereo not given) here?
Its Potency is inconclusive: 25.9 µM [inhibitor, single point].

For N#CC(C#N)=Cc1cnc(N2CCN(c3ccccc3)CC2)s1, which Potency is on record?
Its Potency is inconclusive: 20.6 µM [activator, single point].
